Experimental data reported in patent US7846956B2, “Malononitrile compound as pesticides” (Sumitomo Chemical Company, Limited, priority 2004, dated 2010).
Some entries share one result that the patent states for a list of compounds.

Assays:
Nilaparvata lugens = assay: Experimental Example 1: spray on rice plants, number of parasitic Nilaparvata lugens; assay type: in vivo; conditions: 500 ppm active ingredient, 20 ml/cup sprayed on rice plants; 30 first-instar larvae released; sixth day after release; 25° C.
Aphis gossypii = assay: Experimental Example 2: spray on cucumber, number of Aphis gossypii; assay type: in vivo; conditions: 500 ppm active ingredient, 20 ml/cup sprayed on cucumber with about 20 Aphis gossypii; six days after the treatments

Structure (SMILES)	number of the parasitic pest (Nilaparvata lugens)	number of the parasitic pest (Aphis gossypii)
N#CC(C#N)(CCC(F)(F)F)Cc1cc(C(F)(F)C(F)(F)C(F)(F)F)on1 [present compound (39)]	≤ 3	≤ 3
CC(C)(C)[Si](C)(C)OCc1cc(CC(C#N)(C#N)CCC(F)(F)F)no1 [present compound (43), [(5-(t-butyldimethylsilanyloxymethyl)isoxazol-3-yl)methyl](3,3,3-trifluoropropyl)malononitrile]	≤ 3	–
CC(O[Si](C)(C)C(C)(C)C)c1cc(CC(C#N)(C#N)CCC(F)(F)F)no1 (stereo not shown) [present compound (48)]	–	≤ 3
